Measurements taken from PMC4741653.
No constants are given. Whether binding was seen depends on the method and setting. Binding seen in cells or lysates may run through a third protein. Some binding calls cover weakened binding; strength is not graded here.

The chains behind the UniProt entries cited, without tags or fusion partners.
UniProt Q15022: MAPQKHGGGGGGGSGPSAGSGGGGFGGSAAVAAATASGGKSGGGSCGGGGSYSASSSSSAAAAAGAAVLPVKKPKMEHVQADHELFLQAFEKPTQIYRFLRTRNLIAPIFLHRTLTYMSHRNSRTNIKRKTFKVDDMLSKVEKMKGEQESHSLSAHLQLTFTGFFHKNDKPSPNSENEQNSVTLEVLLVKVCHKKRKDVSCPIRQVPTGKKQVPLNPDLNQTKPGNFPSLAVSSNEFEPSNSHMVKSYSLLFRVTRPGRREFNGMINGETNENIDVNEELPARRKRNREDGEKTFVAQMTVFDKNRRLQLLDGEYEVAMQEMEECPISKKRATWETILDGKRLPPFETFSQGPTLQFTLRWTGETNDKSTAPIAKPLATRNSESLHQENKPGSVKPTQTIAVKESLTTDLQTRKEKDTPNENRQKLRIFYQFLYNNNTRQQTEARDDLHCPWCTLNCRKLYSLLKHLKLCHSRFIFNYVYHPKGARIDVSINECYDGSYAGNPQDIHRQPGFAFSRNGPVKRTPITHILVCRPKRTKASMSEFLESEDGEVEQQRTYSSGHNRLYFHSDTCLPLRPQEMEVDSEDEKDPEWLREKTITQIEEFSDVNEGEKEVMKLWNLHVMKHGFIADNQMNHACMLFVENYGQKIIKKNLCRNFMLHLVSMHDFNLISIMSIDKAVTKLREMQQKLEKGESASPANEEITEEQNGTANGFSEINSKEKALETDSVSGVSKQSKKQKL
UniProt P45973: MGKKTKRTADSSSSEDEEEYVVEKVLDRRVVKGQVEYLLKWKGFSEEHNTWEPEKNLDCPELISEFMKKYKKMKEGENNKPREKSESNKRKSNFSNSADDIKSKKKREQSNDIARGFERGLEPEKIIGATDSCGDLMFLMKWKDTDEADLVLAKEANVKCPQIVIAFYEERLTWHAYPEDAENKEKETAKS

Assays:
[1] = target: SUZ12 (human (endogenous in Hep3B)) (UniProt Q15022); test: co-IP; Hep3B lysates in RIRP lysis buffer; 2 μg antibody (anti-SUV39h1, anti-H3K27Ac or anti-SUZ12) for 4 hours at 4°C, protein G/A-plus agarose beads overnight at 4°C; washes in 50 mM TrisCl pH 7.6, 150 mM NaCl, 0.1% NP-40, 1 mM EDTA; Western blot of the precipitate; IgG IP as negative control; cells transfected with pCMV-miR, pCMV-miR675, pCMV-miR675 plus pcDNA3.1-HP1α, pGFP-V-RS or pGFP-V-RS-miR675
[2] = target: T1, SUV39H1 (human (endogenous in Hep3B)) (UniProt O43463); test: as above
T1 sequence: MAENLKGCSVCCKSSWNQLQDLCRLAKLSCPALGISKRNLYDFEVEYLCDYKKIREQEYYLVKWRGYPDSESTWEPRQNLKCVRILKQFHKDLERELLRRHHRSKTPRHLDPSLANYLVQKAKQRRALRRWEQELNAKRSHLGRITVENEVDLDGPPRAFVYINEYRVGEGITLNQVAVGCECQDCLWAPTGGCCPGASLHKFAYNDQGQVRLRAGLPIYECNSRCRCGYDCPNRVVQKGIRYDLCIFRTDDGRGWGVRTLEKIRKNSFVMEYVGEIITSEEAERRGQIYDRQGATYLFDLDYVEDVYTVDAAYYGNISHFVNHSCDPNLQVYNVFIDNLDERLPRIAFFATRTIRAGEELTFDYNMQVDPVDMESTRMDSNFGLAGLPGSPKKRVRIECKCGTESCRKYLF

heterochromatin protein 1 isoform HP1α (from UniProt P45973 1-191)
binding [1]: binds | binding [2]: binds
